# Among all 53,000 sequences or so, about 3,700 (7%) were called active.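 The calls were made as follows: active = gene knockdowns whose robust z-score for IL-1 alpha signal is at least 2 or at most -2, so actives lie on both sides; inactive = the rest.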 This is one part of the list.
# Assay: Components of the Cytosolic LPS Sensing Pathway: Gene Identification via Genome-wide siRNA Screen;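 also: robust z of the log signal after scaling to non-targeting control siRNA wells of the plate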
# Details: RAW264.7 macrophages, IL-1a HTRF, actives lie on both sides, screened at 100 nM (by protocol), cells primed 5 h with Pam3CSK4 first
# Method in brief: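 Supernatant IL-1a by HTRF from RAW264.7 cells primed with Pam3CSK4 (5 hours) and transfected with LipidA (24 hour) after 48h siRNA knockdown at 100 nM; cell viability checked with CellTiter-Glo.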
row,Sequence,z-score
1,GACUCUUGUCCCAAGUGUUTT against Bloc1s4,inactive: 0.144
2,GGCACUCAAAAACUGUGAGTT against Mrps7,inactive: 0.486
3,CCUGACAGUAGUUACAGUATT against Olfr1080,inactive: 0.641
4,GGGAGGAACCUUUGAGAAUTT against Spats2,inactive: 0.0801
5,GGAAGCAUCAUGGAAAGGCTT against Snhg16,inactive: 1.67
6,GCAAACGACGAAAGUCCAATT against Usp49,inactive: -1.63
7,GGAAAAGAAUUUCCUCCCUTT against Aspa,inactive: -1.74
8,GCAGAUACUGAGAUGCUAUTT against Dkk4,active: 2.24
9,GGUCAAGGAGAUCACCUUCTT against Comp,inactive: -1.27
10,GCUUUCAAGGGAUGAUUCATT against Zc3hav1,inactive: 0.489
11,GGAGAAAAUAAGCUGGUAGTT against Slc35f1,active: 3.42
12,GCCAUGUUUAAGCAAUUGUTT against Vsx1,inactive: -0.575
13,GCACUGAGCUUGACAAAGATT against Upp2,inactive: -0.174
14,GGGAACAUUAUGUGCUGGCTT against Pou2af1,inactive: 0.552
15,GCAAUGGUGGUUCUAAUAUTT against Cmya5,inactive: -0.00244
16,GGUGGUGAAGAAUUUUCUUTT against Serpini1,inactive: 1.89
17,GGUGAUAUUCUUUAAAGACTT against Mmp1b,inactive: 0.822
18,GCUGCACAACCUUUAUCAATT against Spata4,inactive: 1.25
19,GCUCCAGGGAGUUAACUGUTT against Osr2,inactive: 0.0588
20,CGAUGAGACCAACAUCUUUTT against Gpr162,inactive: 0.476
21,GGACGUGAGCUCUCUCUUCTT against Ap2b1,inactive: 1.22
22,GGGAAUUCGUCUCUAGAUATT against Cabyr,inactive: 1.32
23,CCCUCAACCCAUAAUAUUATT against Rnf115,inactive: 0.246

# In another format: results already given
row	Sequence	z-score
6	GCAAACGACGAAAGUCCAATT against Usp49	inactive: -1.63
13	GCACUGAGCUUGACAAAGATT against Upp2	inactive: -0.174
17	GGUGAUAUUCUUUAAAGACTT against Mmp1b	inactive: 0.822

# A few values from the entries so far:
# Entry for GGCACUCAAAAACUGUGAGTT against Mrps7 under z-score: inactive: 0.486
# Entry for GGGAGGAACCUUUGAGAAUTT against Spats2 under z-score: inactive: 0.0801

# Next entries

row,Sequence,z-score
1,GGAGCGGAAUUUAUGGCGATT against Haglr,inactive: -0.866
2,GGGCACACUAAUCAAUGAATT against Lilrb4a,inactive: 1.25
3,GGGAGGACAGUCAUUGGUUTT against Phldb1,inactive: -1.84
4,GCUGUGAGCAAGAGUAAUCTT against Tcaf2,inactive: 0.953
5,GGGAAACACAAUUUACCUUTT against Elf1,active: 3.18
6,GGACGGGAAAUUUUUGAUCTT against Rnf149,inactive: 0.477
7,GGUGAUUGACUUGCCAGGATT against Fn3k,inactive: -1.53
8,CCGAUUCAGGUUUCUGUCUTT against Cdc25a,inactive: -1.99
9,GGUGAAAUACCCGUCUUAUTT against Cyp2f2,inactive: -0.64
10,GGACCUUAUUGAUUCUCUATT against Tex21,inactive: 1.09
11,GGAAAUUGGCAUCACGUUGTT against Anks3,inactive: 1.74
12,GCGUGGUAUGGUAAAAGUUTT against Arx,inactive: -0.264
13,GCUGACUCCGUGUUUUUAATT against Arhgef18,inactive: -0.539
14,GCGAGGAAUAACCCAGAUCTT against Olfr503,inactive: -1.81
15,GGAUUUUGUGAGUGUAAGATT against Ntng1,inactive: -0.624
16,GGAUGAGGUUCUGAAAAUCTT against Rps2,inactive: -0.614
17,CCGGAGAUGGUUGCGUAGATT against Cdkn1c,inactive: 0.939
18,CCACCAAUGAGUACGUCUATT against Prkcsh,inactive: 0.733
19,GAUGUUGGCUCAUCUAGUATT against Olfr1340,inactive: -0.567
20,GGCAAAAUGAGUGAGAGGUTT against Ggct,inactive: 0.805
21,CCCAUGCUAGAGAGAAUUCTT against Zfp563,inactive: -1.09
22,GGAAAUUACGACAUACAAATT against Rp1,inactive: 0.935
23,GGAAGAAAACAAGUAAAACTT against Ccr4,inactive: -0.0454

row,Sequence,z-score
1,GGAUGAAGUCUUUCACUUUTT against Eapp,inactive: 0.947
2,GGUGAAACAGAGCAGAAAATT against 2810004N23Rik,inactive: 0.291
3,CCAUACAUAUAGACAAUCCTT against AY358078,inactive: 0.796
4,GGCCUUUGUUUCUAAGUACTT against Plag1,inactive: -0.156
5,AGUUCACGUAGAACCACGCTT against Vmo1,inactive: 0.648
6,GGAACUCAAGUUGUCUAUGTT against Plekhb2,inactive: 0.995
7,CCUAUCGAGUGAAAGUAAATT against Abcg2,inactive: -0.304
8,GCUAGAUCUCACCAAACUUTT against Ddx21,inactive: -0.117
9,GGGCUCUGUCAGAUAAUCUTT against Gm9918,inactive: 1.45
10,GGUAGCACAUAGUCUAAAATT against AA467197,inactive: 0.933
11,GGUCUAAGUCUGAAUGGCCTT against Agrp,inactive: 0.539
12,GGGAUUUCACUCCCUAAAGTT against Lyrm7,inactive: 0.497
13,GGUCAAUAUCUUGAUGGUATT against Vmn1r213,inactive: -0.252
14,GAAAGAAAAUCGUGUCAGATT against Olfr1199,inactive: -0.187
15,GCUUGUUAGUUUAAUUAGGTT against Elovl5,inactive: 0.533
16,GGAGCAAGCCUUUAAAAGATT against Hnrnpk,inactive: 0.39
17,CCUCUCAAGAAAUCGUGCATT against Trim47,inactive: 0.978
18,CCAAUACUAUACCAACUGCTT against Cacna1g,inactive: 0.291
19,GCAAAAUUGGUUCCAAUGGTT against Rad51,inactive: 0.528
20,GCUGUGCUACCCUCAUUCUTT against Npas4,inactive: -1.43
21,GCAUUGUGUCACAAAAUUUTT against Pde5a,inactive: 0.0151
22,GGUGGUCAGGAAAUGAGUCTT against Lrch4,active: 2.09
